Assay results published in the supplement of paper PMC10849652.
The other results are listed elsewhere or left out.

Chains of the proteins cited; added tags and fusions are not shown. Lines headed by an entry give the natural chain unless they say otherwise; changes in a name come on top.
UniProt Q9UMX0, whole entry, looked up: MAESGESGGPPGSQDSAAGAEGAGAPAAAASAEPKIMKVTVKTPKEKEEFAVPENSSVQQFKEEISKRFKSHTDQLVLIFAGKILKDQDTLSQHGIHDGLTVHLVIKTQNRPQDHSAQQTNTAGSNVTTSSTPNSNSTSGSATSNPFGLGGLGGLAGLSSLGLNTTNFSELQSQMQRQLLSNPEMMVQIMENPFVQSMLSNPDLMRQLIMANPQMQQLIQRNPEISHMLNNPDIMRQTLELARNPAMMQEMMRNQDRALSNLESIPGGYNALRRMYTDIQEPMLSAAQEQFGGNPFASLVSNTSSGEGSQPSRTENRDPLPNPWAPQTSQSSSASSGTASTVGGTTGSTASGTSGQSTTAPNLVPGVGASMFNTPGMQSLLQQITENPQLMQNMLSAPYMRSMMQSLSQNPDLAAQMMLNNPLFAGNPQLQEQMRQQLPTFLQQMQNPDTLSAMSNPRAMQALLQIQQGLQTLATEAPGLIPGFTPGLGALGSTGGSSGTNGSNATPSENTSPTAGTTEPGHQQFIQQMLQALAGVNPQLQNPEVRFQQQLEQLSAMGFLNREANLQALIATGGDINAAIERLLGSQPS
UniProt Q9HA47: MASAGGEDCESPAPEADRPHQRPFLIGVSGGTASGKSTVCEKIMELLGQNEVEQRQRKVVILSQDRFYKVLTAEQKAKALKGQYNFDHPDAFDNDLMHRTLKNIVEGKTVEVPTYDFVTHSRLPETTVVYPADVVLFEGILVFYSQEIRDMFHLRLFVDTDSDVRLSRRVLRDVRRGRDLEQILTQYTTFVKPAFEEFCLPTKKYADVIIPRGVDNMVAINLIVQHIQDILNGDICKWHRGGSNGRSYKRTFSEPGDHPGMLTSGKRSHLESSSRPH
UniProt P47985: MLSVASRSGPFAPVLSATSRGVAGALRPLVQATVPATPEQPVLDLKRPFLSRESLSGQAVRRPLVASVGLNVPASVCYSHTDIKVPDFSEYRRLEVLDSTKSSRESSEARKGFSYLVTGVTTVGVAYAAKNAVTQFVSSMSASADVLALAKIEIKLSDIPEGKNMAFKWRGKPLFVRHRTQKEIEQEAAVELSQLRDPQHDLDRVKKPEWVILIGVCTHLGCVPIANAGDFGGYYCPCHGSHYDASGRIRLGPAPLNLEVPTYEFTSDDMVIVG
UniProt P14927: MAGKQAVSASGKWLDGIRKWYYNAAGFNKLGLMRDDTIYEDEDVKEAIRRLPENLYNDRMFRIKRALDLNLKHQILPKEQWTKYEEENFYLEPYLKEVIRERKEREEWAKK
UniProt Q5T4S7, whole entry, looked up: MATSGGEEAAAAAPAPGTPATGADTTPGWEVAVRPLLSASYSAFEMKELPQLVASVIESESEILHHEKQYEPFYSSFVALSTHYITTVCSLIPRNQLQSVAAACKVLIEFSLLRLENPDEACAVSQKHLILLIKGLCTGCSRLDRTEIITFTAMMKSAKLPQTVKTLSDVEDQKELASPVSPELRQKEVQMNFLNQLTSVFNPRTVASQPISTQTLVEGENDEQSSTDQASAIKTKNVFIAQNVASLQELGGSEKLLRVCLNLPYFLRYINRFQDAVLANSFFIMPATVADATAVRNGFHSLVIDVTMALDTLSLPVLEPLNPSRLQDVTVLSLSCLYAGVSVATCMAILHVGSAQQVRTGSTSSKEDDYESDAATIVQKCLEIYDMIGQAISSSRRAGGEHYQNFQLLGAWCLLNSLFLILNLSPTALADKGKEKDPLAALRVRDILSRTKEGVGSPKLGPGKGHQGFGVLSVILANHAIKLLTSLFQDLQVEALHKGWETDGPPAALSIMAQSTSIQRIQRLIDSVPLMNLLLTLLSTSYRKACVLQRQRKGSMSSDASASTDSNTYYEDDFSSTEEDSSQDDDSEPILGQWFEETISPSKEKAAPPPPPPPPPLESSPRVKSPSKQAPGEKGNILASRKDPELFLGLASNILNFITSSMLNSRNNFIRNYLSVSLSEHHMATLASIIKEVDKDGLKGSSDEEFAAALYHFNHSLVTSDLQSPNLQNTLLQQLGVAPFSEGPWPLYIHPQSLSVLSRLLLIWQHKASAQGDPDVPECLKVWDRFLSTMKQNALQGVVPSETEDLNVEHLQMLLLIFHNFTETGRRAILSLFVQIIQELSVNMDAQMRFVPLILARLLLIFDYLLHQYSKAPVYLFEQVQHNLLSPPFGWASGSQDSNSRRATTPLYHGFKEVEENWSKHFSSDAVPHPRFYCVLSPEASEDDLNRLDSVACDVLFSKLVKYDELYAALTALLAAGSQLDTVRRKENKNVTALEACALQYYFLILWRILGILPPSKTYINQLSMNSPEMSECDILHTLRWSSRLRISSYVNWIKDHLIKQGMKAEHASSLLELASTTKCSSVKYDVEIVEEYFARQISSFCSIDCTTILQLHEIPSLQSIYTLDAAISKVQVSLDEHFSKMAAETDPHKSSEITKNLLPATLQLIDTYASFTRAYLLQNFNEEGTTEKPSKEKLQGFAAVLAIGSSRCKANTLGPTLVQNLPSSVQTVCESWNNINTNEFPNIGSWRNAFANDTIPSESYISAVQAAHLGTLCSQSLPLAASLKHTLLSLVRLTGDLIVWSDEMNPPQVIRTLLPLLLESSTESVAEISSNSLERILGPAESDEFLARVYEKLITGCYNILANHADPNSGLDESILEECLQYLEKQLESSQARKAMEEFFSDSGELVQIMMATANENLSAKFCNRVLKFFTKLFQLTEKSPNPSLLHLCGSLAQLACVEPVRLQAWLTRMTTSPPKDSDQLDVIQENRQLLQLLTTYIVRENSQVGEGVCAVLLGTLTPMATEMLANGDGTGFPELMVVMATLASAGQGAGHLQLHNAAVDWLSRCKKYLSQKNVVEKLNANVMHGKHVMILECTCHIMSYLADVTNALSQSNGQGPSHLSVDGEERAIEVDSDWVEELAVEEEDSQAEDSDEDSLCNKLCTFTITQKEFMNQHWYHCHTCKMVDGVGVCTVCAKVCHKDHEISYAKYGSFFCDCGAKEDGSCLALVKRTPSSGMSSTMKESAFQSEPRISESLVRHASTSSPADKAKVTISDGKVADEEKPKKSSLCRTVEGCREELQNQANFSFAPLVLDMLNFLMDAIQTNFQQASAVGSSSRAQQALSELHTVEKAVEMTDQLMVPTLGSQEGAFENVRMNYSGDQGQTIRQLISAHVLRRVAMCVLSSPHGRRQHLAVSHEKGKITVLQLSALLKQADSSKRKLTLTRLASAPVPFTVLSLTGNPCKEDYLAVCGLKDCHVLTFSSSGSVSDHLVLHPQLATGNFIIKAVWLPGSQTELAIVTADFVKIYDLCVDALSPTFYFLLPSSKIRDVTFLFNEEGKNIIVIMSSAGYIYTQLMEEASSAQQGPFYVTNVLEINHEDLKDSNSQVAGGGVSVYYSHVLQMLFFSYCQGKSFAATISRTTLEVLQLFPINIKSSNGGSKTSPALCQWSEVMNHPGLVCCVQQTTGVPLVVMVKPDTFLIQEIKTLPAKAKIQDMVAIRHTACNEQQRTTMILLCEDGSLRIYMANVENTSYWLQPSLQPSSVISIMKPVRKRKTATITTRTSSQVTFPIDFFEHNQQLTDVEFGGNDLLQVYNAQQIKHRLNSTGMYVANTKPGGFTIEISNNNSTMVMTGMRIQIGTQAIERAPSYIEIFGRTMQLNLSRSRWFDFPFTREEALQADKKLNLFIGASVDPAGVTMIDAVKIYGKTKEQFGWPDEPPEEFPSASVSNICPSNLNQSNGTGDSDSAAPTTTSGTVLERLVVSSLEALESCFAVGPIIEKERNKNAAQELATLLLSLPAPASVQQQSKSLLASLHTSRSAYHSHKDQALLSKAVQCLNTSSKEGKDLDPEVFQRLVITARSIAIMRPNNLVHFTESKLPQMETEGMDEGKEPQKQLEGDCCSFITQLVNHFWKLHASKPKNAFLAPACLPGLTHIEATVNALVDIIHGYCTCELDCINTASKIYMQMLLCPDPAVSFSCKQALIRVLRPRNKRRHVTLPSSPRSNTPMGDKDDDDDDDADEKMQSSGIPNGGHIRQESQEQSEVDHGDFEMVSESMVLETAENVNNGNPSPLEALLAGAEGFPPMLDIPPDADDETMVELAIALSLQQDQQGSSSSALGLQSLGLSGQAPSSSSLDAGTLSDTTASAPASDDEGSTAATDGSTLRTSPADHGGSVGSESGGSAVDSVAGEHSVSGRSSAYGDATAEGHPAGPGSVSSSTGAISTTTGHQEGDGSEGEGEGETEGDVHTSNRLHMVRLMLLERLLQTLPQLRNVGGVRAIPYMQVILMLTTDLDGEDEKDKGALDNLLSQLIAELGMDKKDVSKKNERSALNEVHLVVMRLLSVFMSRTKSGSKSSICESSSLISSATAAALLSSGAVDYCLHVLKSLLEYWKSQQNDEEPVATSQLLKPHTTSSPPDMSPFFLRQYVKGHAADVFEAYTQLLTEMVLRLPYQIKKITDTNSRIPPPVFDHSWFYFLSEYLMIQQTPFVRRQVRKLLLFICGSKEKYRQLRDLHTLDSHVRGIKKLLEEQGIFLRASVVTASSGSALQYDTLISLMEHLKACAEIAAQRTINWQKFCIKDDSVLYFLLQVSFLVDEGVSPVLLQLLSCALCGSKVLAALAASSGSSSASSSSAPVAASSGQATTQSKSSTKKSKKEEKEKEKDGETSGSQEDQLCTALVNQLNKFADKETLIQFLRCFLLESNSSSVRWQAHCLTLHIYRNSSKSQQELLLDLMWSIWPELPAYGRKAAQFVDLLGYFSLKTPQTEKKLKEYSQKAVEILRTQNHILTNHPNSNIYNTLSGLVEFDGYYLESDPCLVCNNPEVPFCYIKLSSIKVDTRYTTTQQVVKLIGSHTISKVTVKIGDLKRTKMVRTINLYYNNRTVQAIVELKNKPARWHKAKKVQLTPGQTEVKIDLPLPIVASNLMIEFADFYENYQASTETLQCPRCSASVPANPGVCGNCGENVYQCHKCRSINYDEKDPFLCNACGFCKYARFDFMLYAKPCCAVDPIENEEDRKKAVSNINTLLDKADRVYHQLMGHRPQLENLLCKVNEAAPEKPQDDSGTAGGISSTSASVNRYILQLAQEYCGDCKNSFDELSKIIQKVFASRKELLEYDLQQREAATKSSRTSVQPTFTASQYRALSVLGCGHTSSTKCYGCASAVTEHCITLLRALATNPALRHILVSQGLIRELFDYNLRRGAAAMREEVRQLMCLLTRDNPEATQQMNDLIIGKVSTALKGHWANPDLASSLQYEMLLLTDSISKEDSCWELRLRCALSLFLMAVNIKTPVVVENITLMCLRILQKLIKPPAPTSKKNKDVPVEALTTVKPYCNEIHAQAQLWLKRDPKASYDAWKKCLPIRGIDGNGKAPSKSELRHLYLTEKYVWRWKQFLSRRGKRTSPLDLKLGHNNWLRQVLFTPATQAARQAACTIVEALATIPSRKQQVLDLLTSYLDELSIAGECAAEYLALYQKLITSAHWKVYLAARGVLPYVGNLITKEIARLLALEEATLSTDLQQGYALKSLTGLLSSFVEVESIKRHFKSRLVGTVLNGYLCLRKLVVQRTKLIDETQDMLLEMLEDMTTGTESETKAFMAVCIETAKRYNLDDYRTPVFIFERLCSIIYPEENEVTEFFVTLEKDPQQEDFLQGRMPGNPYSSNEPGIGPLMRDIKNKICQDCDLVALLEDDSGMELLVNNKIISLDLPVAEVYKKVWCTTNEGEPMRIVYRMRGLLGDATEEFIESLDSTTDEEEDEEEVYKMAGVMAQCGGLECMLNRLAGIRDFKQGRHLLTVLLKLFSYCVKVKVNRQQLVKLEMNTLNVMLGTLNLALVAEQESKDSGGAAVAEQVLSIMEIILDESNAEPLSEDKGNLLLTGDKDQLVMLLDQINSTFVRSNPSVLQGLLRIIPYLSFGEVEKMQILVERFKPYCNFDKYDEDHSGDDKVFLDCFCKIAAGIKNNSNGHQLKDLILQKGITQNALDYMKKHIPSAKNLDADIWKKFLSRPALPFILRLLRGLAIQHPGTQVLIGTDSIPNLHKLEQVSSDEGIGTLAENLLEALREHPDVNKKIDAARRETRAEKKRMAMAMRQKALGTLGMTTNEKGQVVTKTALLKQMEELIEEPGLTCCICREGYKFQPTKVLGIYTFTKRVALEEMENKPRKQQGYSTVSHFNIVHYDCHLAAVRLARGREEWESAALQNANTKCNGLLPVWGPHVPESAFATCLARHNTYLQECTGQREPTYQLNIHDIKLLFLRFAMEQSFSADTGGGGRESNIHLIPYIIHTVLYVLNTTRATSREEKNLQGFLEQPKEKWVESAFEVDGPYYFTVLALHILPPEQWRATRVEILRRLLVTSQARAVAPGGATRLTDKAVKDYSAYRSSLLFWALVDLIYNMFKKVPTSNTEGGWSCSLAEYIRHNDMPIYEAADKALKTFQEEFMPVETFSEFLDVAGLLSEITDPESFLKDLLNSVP
UniProt P11441: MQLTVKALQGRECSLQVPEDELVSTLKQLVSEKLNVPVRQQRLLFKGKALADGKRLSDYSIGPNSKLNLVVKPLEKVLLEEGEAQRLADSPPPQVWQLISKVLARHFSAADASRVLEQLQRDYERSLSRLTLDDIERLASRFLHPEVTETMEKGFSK

Assays:
Experiment in all cases: log2 fold change, soluble protein after heating vs DMSO (PISA); higher = thermal stabilisation; K562 cells, 10 uM, 30 min; active = over 0.2 and 3.5 SD of the protein, either way, in both replicates (recomputed)
[1] = compound: CC[C@@H]1C(=O)N(C)c2cnc(Nc3ccc(C(=O)NC4CCN(C)CC4)cc3OC)nc2N1C1CCCC1
Outline: (§1)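 K562 cells at 2×10^6 cells/mL were treated with 10 μM compound for 30 min. Aliquots were heated for 3 min across 48°C-58°C, pooled, and extracted in PBS with 0.5% NP-40 at 4°C; soluble protein was the supernatant after 21,000xg for 90 min. Soluble protein was quantified by TMTpro 16plex LC-MS/MS with channel sums equalised, and reported as log2 fold change in thermal stability against DMSO controls, with values from duplicates.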

[2] = compound: CC[C@@H]1C(=O)N(C)c2cnc(Nc3ccc(C(=O)N[C@H]4CC[C@H](N5CCN(CC6CC6)CC5)CC4)cc3OC)nc2N1C(C)C [volasertib]
Outline: as §1

[3] = compound: CC[C@H](C)N1C=C(C2=C(C=C(C=C21)C3=CN=C(C=C3)N4CCNCC4)C(=O)NCC5=C(C=C(NC5=O)C)C)C
Outline: as §1

[4] = compound: CC[C@H](C)[C@@H](C(=O)N[C@@H]([C@@H](C)O)C(=O)N[C@@H](CC(C)C)C(=O)[C@]1(CO1)C)NC(=O)[C@H]([C@@H](C)CC)N(C)C(=O)C [epoxomicin]
Outline: as §1

[5] = compound: CCn1c(C(=O)N(C2CC2)C2CC2)cc2c3c(ncn3C)c(Nc3cc(C)n(C)n3)nc21
Outline: as §1

[6] = compound: CCn1cc(-c2ccnc3[nH]c(-c4cccc(CN(C)C)c4)cc23)c(-c2ccc(NC(=O)N(C)C)cc2)n1
Outline: as §1

[7] = compound: CN(C)CC(=O)Nc1ccc2[nH]c(=O)c3ccccc3c2c1
Outline: as §1

[8] = compound: CN(CCOC1=CC=C(C=C1)C[C@H]2C(=O)NC(=O)S2)C3=CC=CC=N3 (racemic) [rosiglitazone]
Outline: as §1

[9] = compound: CN1C2=C(C3=C1C(=O)N(N=C3)CC4=CC(=CC=C4)N)SC(=C2)S(=O)C
Outline: as §1

[10] = compound: CN1CCC(CNc2ccc3ncc(-c4cccc(OC(F)(F)F)c4)n3n2)CC1
Outline: as §1

[11] = compound: CN1CCN(CCOc2cc(OC3CCOCC3)c3c(Nc4c(Cl)ccc5c4OCO5)ncnc3c2)CC1 [saracatinib]
Outline: as §1

[12] = compound: CN1CCN(c2nc(C3=C(c4c[nH]c5ccccc45)C(=O)NC3=O)c3ccccc3n2)CC1 [sotrastaurin]
Outline: as §1

[13] = compound: CN1CC[C@H](c2c(O)cc(O)c3c(=O)cc(-c4ccccc4Cl)oc23)[C@H](O)C1 [alvocidib]
Outline: as §1

[14] = compound: CN1CCc2c(c3ccccc3n2Cc2ccc(C(=O)NO)cc2)C1 [Tubastatin A]
Outline: as §1

[15] = compound: CNC(=O)C1=CC=CC=C1NC2=NC(=NC=C2Cl)NC3=C(C=C(C=C3)N4CCOCC4)OC
Outline: as §1

[16] = compound: CNC(=O)c1ccc(Nc2ncc(C(F)(F)F)c(NCc3nccnc3N(C)S(C)(=O)=O)n2)cc1 [defactinib]
Outline: as §1

[17] = compound: CNCc1ccc(-c2[nH]c3cc(F)cc4c3c2CCNC4=O)cc1 [rucaparib]
Outline: as §1

[18] = compound: CNc1nc(-c2ccc3c(N)n[nH]c3c2)cc(N2C[C@@H](C(=O)NC3CCCCC3)CC[C@H]2C)n1
Outline: as §1

[19] = compound: COC(=O)N[C@@H](C)CNc1nccc(-c2cn(C(C)C)nc2-c2cc(Cl)cc(NS(C)(=O)=O)c2F)n1 [encorafenib]
Outline: as §1

[20] = compound: COC(=O)[C@H](CCSC)NC(=O)C1=C(C=C(C=C1)NC[C@H](CS)N)C2=CC=CC=C2
Outline: as §1

Measured: log2 fold change

UBQLN1 (UniProt Q9UMX0)
inactive: [1] -0.009 | [2] 0.05 | [3] -0.035 | [4] -0.026 | [5] -0.004 | [6] -0.008 | [7] -0.048 | [8] -0.021 | [9] 0.004 | [10] 0.029 | [11] 0.071 | [12] 0.038 | [13] 0.068 | [14] 0.006 | [15] -0.065 | [16] -0.02 | [17] -0.04 | [18] -0.013 | [19] -0.032 | [20] 0.045

UROD (UniProt P06132)
inactive: [1] 0 | [2] 0.057 | [3] -0.006 | [4] 0.005 | [5] 0.006 | [6] -0.035 | [7] -0.031 | [8] 0 | [9] 0.003 | [10] -0.015 | [11] -0.046 | [12] 0.046 | [13] -0.01 | [14] -0.007 | [15] -0.042 | [16] 0.019 | [17] 0.02 | [18] -0.029 | [19] -0.025 | [20] 0.038

UQCRQ (UniProt O14949)
inactive: [1] 0.014 | [2] 0.067 | [3] -0.05 | [4] 0.009 | [5] 0.02 | [6] -0.005 | [7] -0.053 | [8] -0.029 | [9] -0.056 | [10] 0.155 | [11] 0.032 | [12] 0.044 | [13] 0.023 | [14] -0.052 | [15] -0.016 | [16] 0.025 | [17] 0.018 | [18] -0.013 | [19] -0.045 | [20] 0.059

UPF1 (UniProt Q92900)
inactive: [1] 0.05 | [2] -0.115 | [3] 0.03 | [4] 0.009 | [5] -0.059 | [6] -0.011 | [7] 0.006 | [8] 0.018 | [9] -0.027 | [10] -0.026 | [11] 0.009 | [12] 0.006 | [13] 0.051 | [14] 0.002 | [15] 0.014 | [16] 0.026 | [17] 0.024 | [18] -0.002 | [19] 0.005 | [20] -0.036

VAMP2 (UniProt P63027)
inactive: [1] 0.06 | [2] -0.032 | [3] -0.009 | [4] 0.053 | [5] 0.048 | [6] -0.019 | [7] -0.044 | [8] 0.01 | [9] -0.027 | [10] 0.308 | [11] 0.049 | [12] 0.001 | [13] -0.009 | [14] 0.093 | [15] 0.018 | [16] 0.091 | [17] -0.012 | [18] 0.135 | [19] 0.057 | [20] -0.161

VAC14 (UniProt Q08AM6)
inactive: [1] -0.052 | [2] -0.107 | [3] 0.012 | [4] 0.005 | [5] 0.01 | [6] -0.043 | [7] -0.021 | [8] 0.016 | [9] -0.031 | [10] -0.202 | [11] 0.014 | [12] -0.012 | [13] -0.036 | [14] -0.037 | [15] -0.005 | [16] -0.012 | [17] -0.033 | [18] -0.054 | [19] 0.007 | [20] -0.014

UCK1 (UniProt Q9HA47)
inactive: [1] -0.022 | [2] -0.008 | [3] 0.047 | [4] 0.084 | [5] 0.043 | [6] -0.048 | [7] 0.002 | [8] 0.037 | [9] -0.048 | [10] 0.008 | [11] -0.031 | [12] -0.003 | [13] -0.01 | [14] -0.017 | [15] -0.029 | [16] -0.031 | [17] 0.011 | [18] -0.056 | [19] 0.054 | [20] 0.028

VAMP4 (UniProt O75379)
inactive: [1] 0.105 | [2] 0.065 | [3] -0.081 | [4] -0.08 | [5] 0.026 | [6] 0.033 | [7] -0.137 | [8] -0.047 | [9] -0.027 | [10] -0.126 | [11] 0.054 | [12] 0.049 | [13] 0.071 | [14] 0.036 | [15] -0.02 | [16] -0.029 | [17] 0.013 | [18] -0.08 | [19] -0.054 | [20] 0.056

UBR5 (UniProt O95071)
inactive: [1] -0.028 | [2] -0.298 | [3] 0.07 | [4] -0.148 | [5] -0.007 | [6] 0.061 | [7] -0.002 | [8] 0.003 | [9] 0.112 | [10] 0.023 | [11] 0.014 | [12] -0.149 | [13] -0.005 | [14] -0.048 | [15] 0.062 | [16] -0.03 | [17] -0.015 | [18] -0.098 | [19] 0.101 | [20] 0

UBE3C (UniProt Q15386)
inactive: [1] -0.003 | [2] -0.261 | [3] 0.024 | [4] 0.01 | [5] -0.004 | [6] -0.037 | [7] -0.014 | [8] 0.025 | [9] -0.01 | [10] -0.003 | [11] 0.01 | [12] -0.033 | [13] -0.118 | [14] 0.153 | [15] -0.022 | [16] -0.037 | [17] -0.011 | [18] 0.011 | [19] 0.034 | [20] 0.02

UQCRFS1 (UniProt P47985)
inactive: [1] -0.036 | [2] 0.075 | [3] -0.017 | [4] 0.07 | [5] 0.037 | [6] 0.041 | [7] 0 | [8] 0.015 | [9] -0.032 | [10] 0.032 | [11] -0.013 | [12] 0.009 | [13] -0.006 | [14] -0.014 | [15] 0.059 | [16] -0.034 | [17] -0.042 | [18] -0.048 | [19] -0.046 | [20] 0.023

UQCRB (UniProt P14927)
inactive: [1] 0.026 | [2] 0.081 | [3] -0.036 | [4] -0.005 | [5] 0.059 | [6] 0.012 | [7] -0.009 | [8] 0.005 | [9] -0.054 | [10] 0.025 | [11] 0.012 | [12] 0.05 | [13] -0.005 | [14] -0.013 | [15] -0.029 | [16] -0.006 | [17] 0.01 | [18] -0.057 | [19] -0.008 | [20] -0.012

URI1 (UniProt O94763)
inactive: [1] 0.034 | [2] 0.166 | [3] 0.04 | [4] 0.002 | [5] -0.001 | [6] -0.012 | [7] -0.002 | [8] 0.035 | [9] 0.005 | [10] -0.054 | [11] -0.012 | [12] 0.026 | [13] 0.027 | [14] 0.059 | [15] -0.053 | [16] -0.018 | [17] 0.002 | [18] -0.033 | [19] -0.021 | [20] 0.008

UBR4 isoform 2 (UniProt Q5T4S7)
inactive: [1] -0.031 | [2] -0.179 | [3] 0.055 | [4] 0.012 | [5] -0.039 | [6] 0.022 | [7] 0.015 | [8] 0.007 | [9] 0.118 | [10] -0.088 | [11] -0.037 | [12] -0.114 | [13] 0.008 | [14] 0.039 | [15] 0.013 | [16] 0.032 | [17] 0.124 | [18] 0.066 | [19] 0.112 | [20] -0.043

UFSP2 (UniProt Q9NUQ7)
inactive: [1] 0.026 | [2] -0.128 | [3] 0.02 | [4] -0.002 | [5] -0.057 | [6] -0.055 | [7] 0.027 | [8] 0.118 | [9] -0.015 | [10] 0.069 | [11] 0.029 | [12] -0.036 | [13] -0.056 | [14] -0.009 | [15] 0.021 | [16] -0.048 | [17] -0.005 | [18] 0.046 | [19] 0.02 | [20] -0.08

UBL4A (UniProt P11441)
inactive: [1] -0.013 | [2] -0.073 | [3] -0.003 | [4] -0.009 | [5] 0.005 | [6] 0.053 | [7] 0.039 | [8] 0.029 | [9] -0.014 | [10] -0.031 | [11] 0 | [12] -0.033 | [13] -0.06 | [14] 0.016 | [15] 0.014 | [16] 0.003 | [17] 0.013 | [18] 0.006 | [19] 0.004 | [20] -0.018

Two records drawn at random from the list so far:
UBR4 isoform 2 (UniProt Q5T4S7)
inactive: [1] -0.031 | [2] -0.179 | [3] 0.055 | [4] 0.012 | [5] -0.039 | [6] 0.022 | [7] 0.015 | [8] 0.007 | [9] 0.118 | [10] -0.088 | [11] -0.037 | [12] -0.114 | [13] 0.008 | [14] 0.039 | [15] 0.013 | [16] 0.032 | [17] 0.124 | [18] 0.066 | [19] 0.112 | [20] -0.043

URI1 (UniProt O94763)
inactive: [1] 0.034 | [2] 0.166 | [3] 0.04 | [4] 0.002 | [5] -0.001 | [6] -0.012 | [7] -0.002 | [8] 0.035 | [9] 0.005 | [10] -0.054 | [11] -0.012 | [12] 0.026 | [13] 0.027 | [14] 0.059 | [15] -0.053 | [16] -0.018 | [17] 0.002 | [18] -0.033 | [19] -0.021 | [20] 0.008
